These are yes or no findings as the source states them, for the method shown. In cells and extracts the contact can be indirect. Here binding means that the protein was enriched with, or labelled near, the bait; the list need not be complete. A no says only that the protein was not detected with the bait.
Experiments:
[1] = target: ClpC1^CORE (ClpC1 lacking the NTD, aa 158 to 848, C-terminal 3xFLAG) (M. smegmatis) (UniProt A0R574); assay: affinity purification with mass spectrometry; 3xFLAG-tagged ClpC1 construct expressed in M. smegmatis MC2155; lysate incubated with anti-FLAG M2 beads 1 h at 4°C in 25 mM HEPES, 10 mM MgCl2, 200 mM KCl, 0.1 mM EDTA, 10 mM ATP, pH 7.5; SDS-PAGE, in-gel trypsin digestion, LC-MS/MS; proteins seen in at least two of three biological replicates; proteins of the empty vector control ignored
[2] = target: ClpC1^NTD (ClpC1 N-terminal domain alone, aa 1 to 147, C-terminal 3xFLAG) (M. smegmatis) (UniProt A0R574); assay: as above

The chains behind the UniProt entries cited, without tags or fusion partners. Where a name states a change or a piece, a line headed by the entry shows the natural chain unless it says otherwise. Residues count along the entry.
ClpC1^NTD (ClpC1 N-terminal domain alone, aa 1 to 147, C-terminal 3xFLAG) (A0R574, residues 1-147): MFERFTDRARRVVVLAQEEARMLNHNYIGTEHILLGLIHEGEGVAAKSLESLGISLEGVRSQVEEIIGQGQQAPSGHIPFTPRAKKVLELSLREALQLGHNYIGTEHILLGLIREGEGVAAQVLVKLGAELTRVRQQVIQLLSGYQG
ClpC1^CORE (ClpC1 lacking the NTD, aa 158 to 848, C-terminal 3xFLAG) (A0R574, residues 158-848): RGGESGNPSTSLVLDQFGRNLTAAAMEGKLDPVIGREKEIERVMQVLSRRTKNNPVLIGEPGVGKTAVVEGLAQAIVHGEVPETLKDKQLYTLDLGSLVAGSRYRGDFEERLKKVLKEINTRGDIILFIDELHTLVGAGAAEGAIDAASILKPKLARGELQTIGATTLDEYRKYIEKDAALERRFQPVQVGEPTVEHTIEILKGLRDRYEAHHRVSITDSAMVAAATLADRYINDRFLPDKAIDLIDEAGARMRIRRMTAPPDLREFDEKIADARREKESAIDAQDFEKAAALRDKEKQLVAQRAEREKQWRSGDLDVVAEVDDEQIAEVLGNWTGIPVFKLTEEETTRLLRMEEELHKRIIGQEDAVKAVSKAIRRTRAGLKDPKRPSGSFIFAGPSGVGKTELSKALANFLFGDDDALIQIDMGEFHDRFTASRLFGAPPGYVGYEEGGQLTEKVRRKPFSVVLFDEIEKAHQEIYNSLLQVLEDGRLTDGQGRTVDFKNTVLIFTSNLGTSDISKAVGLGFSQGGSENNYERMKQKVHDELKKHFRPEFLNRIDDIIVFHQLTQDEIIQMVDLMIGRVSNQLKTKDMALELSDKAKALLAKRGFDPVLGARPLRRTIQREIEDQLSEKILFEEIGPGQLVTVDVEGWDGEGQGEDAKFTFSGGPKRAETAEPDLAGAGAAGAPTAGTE
UniProt A0QSL6: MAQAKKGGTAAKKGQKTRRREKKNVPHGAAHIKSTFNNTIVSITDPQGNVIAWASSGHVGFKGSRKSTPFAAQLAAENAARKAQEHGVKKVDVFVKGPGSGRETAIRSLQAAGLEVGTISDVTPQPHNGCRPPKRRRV
UniProt A0R202: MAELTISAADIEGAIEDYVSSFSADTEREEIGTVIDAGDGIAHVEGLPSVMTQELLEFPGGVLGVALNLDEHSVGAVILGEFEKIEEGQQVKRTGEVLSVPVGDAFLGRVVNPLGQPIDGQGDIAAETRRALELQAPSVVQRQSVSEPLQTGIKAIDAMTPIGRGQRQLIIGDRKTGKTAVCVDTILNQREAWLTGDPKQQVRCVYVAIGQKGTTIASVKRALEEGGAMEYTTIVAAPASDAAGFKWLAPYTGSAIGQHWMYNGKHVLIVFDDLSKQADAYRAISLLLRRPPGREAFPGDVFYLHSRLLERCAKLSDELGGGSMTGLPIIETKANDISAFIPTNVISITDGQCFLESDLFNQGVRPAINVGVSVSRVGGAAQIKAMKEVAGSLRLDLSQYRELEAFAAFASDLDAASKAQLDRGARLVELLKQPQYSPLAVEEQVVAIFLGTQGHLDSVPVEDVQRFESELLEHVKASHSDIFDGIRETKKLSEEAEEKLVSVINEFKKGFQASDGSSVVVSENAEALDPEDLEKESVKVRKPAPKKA
UniProt A0R200: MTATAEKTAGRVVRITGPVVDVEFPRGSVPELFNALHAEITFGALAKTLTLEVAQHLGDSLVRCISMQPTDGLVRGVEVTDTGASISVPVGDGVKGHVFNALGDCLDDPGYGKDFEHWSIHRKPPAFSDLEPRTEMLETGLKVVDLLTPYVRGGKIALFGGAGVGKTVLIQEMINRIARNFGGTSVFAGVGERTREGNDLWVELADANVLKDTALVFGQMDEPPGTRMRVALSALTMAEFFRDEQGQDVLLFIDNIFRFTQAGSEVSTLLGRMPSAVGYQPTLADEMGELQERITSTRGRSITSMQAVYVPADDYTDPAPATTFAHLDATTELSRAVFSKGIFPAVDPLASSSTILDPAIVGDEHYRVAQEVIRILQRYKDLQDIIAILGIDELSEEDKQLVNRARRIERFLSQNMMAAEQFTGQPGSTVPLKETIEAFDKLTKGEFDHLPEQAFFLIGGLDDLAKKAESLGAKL
UniProt A0R617: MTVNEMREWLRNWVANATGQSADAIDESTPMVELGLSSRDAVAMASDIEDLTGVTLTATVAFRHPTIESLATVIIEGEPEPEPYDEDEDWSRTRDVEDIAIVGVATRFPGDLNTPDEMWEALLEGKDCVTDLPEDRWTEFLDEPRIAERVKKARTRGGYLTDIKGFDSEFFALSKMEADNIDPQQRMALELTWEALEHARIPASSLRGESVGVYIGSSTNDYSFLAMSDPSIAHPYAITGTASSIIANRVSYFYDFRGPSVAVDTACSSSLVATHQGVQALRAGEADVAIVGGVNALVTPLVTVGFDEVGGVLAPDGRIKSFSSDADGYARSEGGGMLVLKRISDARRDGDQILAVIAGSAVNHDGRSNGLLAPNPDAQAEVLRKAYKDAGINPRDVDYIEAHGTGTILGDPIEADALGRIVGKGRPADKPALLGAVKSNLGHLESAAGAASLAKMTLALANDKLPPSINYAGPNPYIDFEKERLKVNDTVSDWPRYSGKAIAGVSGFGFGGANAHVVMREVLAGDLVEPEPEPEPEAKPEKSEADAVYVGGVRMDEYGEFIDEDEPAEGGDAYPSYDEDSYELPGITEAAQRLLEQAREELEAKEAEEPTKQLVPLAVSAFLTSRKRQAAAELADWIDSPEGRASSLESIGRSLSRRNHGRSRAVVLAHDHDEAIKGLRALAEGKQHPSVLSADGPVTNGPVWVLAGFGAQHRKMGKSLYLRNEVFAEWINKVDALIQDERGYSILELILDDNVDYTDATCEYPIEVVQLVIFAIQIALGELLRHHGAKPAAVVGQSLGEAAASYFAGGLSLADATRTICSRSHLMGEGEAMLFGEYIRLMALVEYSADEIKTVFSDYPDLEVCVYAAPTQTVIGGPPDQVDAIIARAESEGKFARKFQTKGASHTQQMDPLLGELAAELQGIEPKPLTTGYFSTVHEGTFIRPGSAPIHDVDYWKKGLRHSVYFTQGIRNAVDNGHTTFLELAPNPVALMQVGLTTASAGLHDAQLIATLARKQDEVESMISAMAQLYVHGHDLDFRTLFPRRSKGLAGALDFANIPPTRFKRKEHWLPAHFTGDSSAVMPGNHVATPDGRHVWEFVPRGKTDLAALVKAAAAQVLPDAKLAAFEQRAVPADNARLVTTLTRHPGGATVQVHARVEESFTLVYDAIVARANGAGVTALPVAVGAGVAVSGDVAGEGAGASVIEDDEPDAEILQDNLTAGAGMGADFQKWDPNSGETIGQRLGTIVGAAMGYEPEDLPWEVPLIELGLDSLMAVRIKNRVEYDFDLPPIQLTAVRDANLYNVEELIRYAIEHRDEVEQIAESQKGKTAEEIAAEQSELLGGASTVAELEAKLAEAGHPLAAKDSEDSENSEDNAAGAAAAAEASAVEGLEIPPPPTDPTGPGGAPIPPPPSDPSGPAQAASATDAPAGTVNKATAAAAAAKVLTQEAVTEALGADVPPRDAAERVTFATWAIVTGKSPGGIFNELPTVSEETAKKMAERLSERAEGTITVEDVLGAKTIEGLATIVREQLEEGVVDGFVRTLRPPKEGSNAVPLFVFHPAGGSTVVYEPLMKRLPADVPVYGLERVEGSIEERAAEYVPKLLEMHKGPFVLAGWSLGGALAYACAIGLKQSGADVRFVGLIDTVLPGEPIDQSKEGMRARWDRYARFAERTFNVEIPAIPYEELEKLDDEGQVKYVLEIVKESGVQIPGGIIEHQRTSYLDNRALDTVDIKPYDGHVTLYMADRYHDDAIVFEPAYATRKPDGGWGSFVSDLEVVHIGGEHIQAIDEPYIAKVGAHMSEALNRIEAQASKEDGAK
UniProt P71533: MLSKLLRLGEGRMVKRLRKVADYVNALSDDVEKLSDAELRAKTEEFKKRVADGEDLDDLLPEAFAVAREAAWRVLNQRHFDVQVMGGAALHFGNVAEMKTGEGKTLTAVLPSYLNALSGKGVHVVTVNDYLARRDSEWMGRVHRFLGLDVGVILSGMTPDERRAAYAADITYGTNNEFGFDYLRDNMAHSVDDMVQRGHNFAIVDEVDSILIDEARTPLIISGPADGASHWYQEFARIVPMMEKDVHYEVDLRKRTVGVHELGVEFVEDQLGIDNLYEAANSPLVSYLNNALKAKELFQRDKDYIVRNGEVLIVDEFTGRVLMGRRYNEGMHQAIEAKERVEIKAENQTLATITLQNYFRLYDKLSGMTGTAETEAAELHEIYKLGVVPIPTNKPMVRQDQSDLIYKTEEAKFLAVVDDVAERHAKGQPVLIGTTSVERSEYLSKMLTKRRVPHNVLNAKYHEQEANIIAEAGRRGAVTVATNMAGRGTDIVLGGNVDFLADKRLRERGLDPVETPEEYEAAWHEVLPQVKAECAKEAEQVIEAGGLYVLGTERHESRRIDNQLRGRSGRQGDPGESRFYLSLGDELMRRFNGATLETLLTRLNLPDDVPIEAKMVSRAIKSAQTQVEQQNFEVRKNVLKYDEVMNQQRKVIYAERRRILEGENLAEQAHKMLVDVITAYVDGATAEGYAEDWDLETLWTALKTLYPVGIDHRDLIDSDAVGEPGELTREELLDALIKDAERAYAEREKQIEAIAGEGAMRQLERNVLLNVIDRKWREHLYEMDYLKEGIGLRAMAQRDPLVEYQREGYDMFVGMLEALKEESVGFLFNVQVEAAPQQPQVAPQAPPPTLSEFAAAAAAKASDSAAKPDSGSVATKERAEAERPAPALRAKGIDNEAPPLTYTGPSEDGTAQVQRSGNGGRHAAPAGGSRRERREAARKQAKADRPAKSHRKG
UniProt A0QV32: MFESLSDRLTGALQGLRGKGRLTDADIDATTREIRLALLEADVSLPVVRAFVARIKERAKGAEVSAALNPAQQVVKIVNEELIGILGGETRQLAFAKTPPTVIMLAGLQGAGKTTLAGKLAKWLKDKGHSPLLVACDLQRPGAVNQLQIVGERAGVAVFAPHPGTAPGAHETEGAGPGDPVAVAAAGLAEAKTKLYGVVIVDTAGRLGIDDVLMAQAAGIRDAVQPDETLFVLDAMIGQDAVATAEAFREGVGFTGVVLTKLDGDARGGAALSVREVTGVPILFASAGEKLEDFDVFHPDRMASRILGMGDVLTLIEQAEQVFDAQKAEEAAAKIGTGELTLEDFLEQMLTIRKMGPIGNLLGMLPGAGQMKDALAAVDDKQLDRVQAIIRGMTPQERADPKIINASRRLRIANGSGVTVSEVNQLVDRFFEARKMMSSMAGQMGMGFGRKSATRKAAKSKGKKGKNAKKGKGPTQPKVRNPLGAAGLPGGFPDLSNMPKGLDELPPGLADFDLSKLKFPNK
UniProt A0QQQ1: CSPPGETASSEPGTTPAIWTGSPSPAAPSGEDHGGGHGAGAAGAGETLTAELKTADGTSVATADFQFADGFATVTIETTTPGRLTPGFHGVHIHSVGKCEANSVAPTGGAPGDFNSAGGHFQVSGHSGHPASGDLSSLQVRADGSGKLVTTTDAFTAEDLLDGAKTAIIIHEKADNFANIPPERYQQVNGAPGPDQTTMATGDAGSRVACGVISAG
UniProt A0R052: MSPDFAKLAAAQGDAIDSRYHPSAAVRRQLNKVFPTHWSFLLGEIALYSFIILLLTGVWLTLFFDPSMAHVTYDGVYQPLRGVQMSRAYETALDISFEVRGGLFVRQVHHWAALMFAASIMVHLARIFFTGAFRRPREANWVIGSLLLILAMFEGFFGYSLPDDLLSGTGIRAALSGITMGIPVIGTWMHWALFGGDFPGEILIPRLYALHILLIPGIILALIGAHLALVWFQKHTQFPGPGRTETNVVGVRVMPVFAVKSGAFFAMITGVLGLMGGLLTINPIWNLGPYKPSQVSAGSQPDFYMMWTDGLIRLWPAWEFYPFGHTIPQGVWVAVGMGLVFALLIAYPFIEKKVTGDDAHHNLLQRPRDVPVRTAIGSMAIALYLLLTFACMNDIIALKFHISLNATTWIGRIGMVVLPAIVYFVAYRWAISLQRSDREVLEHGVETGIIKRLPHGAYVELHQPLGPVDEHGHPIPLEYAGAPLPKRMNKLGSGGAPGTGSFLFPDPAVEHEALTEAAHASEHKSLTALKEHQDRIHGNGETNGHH

Substance | binding [1] | binding [2]
30S ribosomal protein S11 (from UniProt A0QSL6 1-138) | binds | no binding
ATP synthase subunit alpha (from UniProt A0R202 1-548) | no binding | binds
ATP synthase subunit beta (from UniProt A0R200 1-475) | binds | binds
Polyketide synthase Pks13 (from UniProt A0R617 1-1816) | – | binds
Protein translocase subunit SecA 1 (from UniProt P71533 1-953) | binds | binds
Signal recognition particle protein (fifty-four homolog) (from UniProt A0QV32 1-522) | binds | binds
Superoxide dismutase [Cu-Zn] (EC 1.15.1.1) (from UniProt A0QQQ1) | binds | binds
Ubiquinol-cytochrome c reductase cytochrome b subunit (from UniProt A0R052 1-546) | binds | no binding
